Measurements reported in PubChem BioAssay AID1259424 (University of Nebraska Medical Center, 2018).
The deposit covers about 14,000 reagents; this is an unselected part. 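Higher correlation or smaller distance means closer resemblance to KSR1 loss; control wells, including KSR1 knockdowns, recur on many plates.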 Further read-outs or replicates are left out here. The record does not give: the time to read-out.

- Aim: 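Rank knockdowns across the genome by resemblance to the KSR1 depletion profile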 (primary screen)
- Cells: human HCT116 colon cancer cells
- Reagents: siRNA pool against human genes, 50 nM
- Measurement: 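Six signature mRNAs by branched-DNA multiplex assay, scaled to two housekeeping genes and non-targeting median, log2; matched to mean KSR1 knockdown profile by Pearson correlation and euclidean distance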
- Scale: mean correlation with KSR1 profile: higher = expression change more like KSR1 knockdown

gene,mean correlation with KSR1 profile
CCNB1,-0.0997
FRAT1,-0.27
ZNF292,-0.621
UBTD1,0.199
HLA-DQB1,-0.512
RCN2,-0.0516
FAM193A,-0.188
ZNF214,0.366
TTC22,-0.057
RERE,0.0351
PPP2R2A,-0.425
CIAO3,0.119
C2CD2,0.25
COA4,-0.468
SNW1,-0.602
HSF2,-0.354
TASP1,-0.507
GJB5,-0.151
ZNF2,-0.275
SPR,-0.254
GNA11,-0.216

7 entries from above, set out differently.
gene | mean correlation with KSR1 profile
SNW1 | -0.602
HSF2 | -0.354
TASP1 | -0.507
GJB5 | -0.151
ZNF2 | -0.275
SPR | -0.254
GNA11 | -0.216

Continued.
gene,mean correlation with KSR1 profile
IARS1,-0.301
ZNF189,-0.5
SARM1,-0.105
CKS1B,0.81
TNFRSF11A,0.23
LXN,-0.825
IL20RA,-0.57
OTULINL,0.162
PFKM,-0.321
SPAG4,0.18
NRIP3,0.0226
BIN3,-0.516
NMBR,0.751
THSD4,-0.218
SLC23A2,-0.41
PPRC1,-0.63
SCD,-0.0614
NOP56,-0.773
ECI2,-0.41
SIRT3,-0.798
SASH3,-0.563
SAA2,0.516
MDM4,-0.000496
CDKN3,0.796
CXCR6,0.15
OSER1,-0.476
CD1D,0.451
RIMS3,-0.292
IGLL1,-0.291
